According to PubChem BioAssay AID2551 (National Center for Advancing Translational Sciences (NCATS), 2010):
Screen size: about 310,000 compounds; about 17,000 (5.5%) were called active. Inconclusive results, whose numbers are uncertain, are shown with a selection of clear calls. Calls come from the whole dose curve; as a rule, active = well fitted inhibition curve with a large enough effect; inconclusive = small, poorly fitted or top-dose-only effect, or effect the other way; inactive = no such curve, though single readings can be large or run the other way. Potencies of inconclusive entries are doubtful fits and often do not repeat.

Chains of the proteins cited; added tags and fusions are not shown. Lines headed by an entry give the natural chain unless they say otherwise; changes in a name come on top.
UniProt P51450: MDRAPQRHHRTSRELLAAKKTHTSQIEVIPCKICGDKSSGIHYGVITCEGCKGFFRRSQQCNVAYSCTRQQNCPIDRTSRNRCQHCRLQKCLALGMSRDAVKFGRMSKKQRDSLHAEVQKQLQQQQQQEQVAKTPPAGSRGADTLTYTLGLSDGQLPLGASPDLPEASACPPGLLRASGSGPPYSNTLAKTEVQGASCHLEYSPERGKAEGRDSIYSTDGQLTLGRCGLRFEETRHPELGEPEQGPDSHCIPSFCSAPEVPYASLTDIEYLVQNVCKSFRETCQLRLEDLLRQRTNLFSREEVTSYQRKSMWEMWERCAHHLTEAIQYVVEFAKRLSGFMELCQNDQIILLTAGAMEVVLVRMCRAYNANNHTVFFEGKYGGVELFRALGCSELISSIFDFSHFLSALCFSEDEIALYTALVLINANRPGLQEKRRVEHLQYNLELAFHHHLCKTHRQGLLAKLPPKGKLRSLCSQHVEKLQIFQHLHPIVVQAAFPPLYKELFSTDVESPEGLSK

target: Nuclear receptor ROR-gamma (Mus musculus) (UniProt P51450); assay: qHTS for inhibitors of ROR gamma transcriptional activity; details: Drosophila S2 Gal4-RORgamma UAS-luciferase reporter, 20 h; series mostly up to 53.6 µM; note: nearly all actives have a fitted effect of over 60% in size
Method in brief: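 Stably transfected Drosophila Schneider cells are the test system, with ROR gamma fused to Gal4 and luciferase under UAS control; luminescence is read after 20 hr of 700 uM copper sulfate induction at ambient temperature.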
Potency is the fitted concentration of half-maximal effect.

| SMILES | Potency |
| --- | --- |
| Cc1cc(=O)[nH]c(N/N=C/c2ccc(Cl)cc2Cl)n1 | inactive |
| CNC(=S)N/N=C(\C)c1ccc(C(C)(C)C)cc1 | active: 1.12 µM |
| COc1ccc2c(c1)C1(Nc3ccccc3-c3nc4ccccc4n31)C(=O)N2C (configuration not stated) | inconclusive: 35.5 µM [activator, single point] |
| Cc1cccc(C(=O)Nc2ccc(S(=O)(=O)N3CCOCC3)cc2C)c1 | inactive |
| S=C(NCCc1ccccn1)Nc1cc(Cl)cc(Cl)c1 | active: 5.01 µM |
| CC(=O)Oc1ccc(/C(C)=N\N2CCN(Cc3ccc(Cl)cc3)CC2)cc1 | inconclusive: 25.1 µM [activator, single point] |
| Cc1nn(-c2ccccc2)c(Cl)c1C(=O)Nc1nnc(C2CCCC2)s1 | active: 7.94 µM |
| Cc1ccc(CNS(=O)(=O)c2cccc3nsnc23)cc1 | inactive |
| O=C1CCC(C(=O)N2CCSCC2)CN1CCc1ccccc1 (configuration not stated) | inactive |
| O=C1CC(SC(=Nc2ccccc2)Nc2ccccc2)C(=O)N1c1cccc2ccccc12 (configuration not stated) | inconclusive: 15.8 µM [inhibitor, single point] |
| CCCCC(=O)NC(=S)Nc1cccc(NC(=O)c2ccccc2)c1 | active: 2.24 µM |
| Cc1onc(-c2ccccc2)c1C(=O)N/N=C/c1ccc(Br)cc1 | inconclusive: 20 µM [inhibitor, single point] |
| CC1CCN(c2ccccc2NC(=S)NC(=O)c2ccc(-c3cccc([N+](=O)[O-])c3)o2)CC1 | active: 1 µM |
| CCC1(C)Cc2c(sc3nnn(CC(=O)Nc4ccccc4)c(=O)c23)CO1 (configuration not stated) | inactive |
| Cc1cc(C)n2nc(C(=O)Nc3nccs3)nc2n1 | inconclusive: 10 µM [inhibitor, single point] |
| COc1ccc(NC(=S)N(CCCN2CCOCC2)C(C)c2cc3ccccc3o2)cc1 (configuration not stated) | active: 10 µM |
| CCCCCC(=O)N[C@@H](c1ccccc1)[C@@H](O)C(=O)O[C@H]1C[C@@]2(O)[C@@H](OC(=O)c3ccccc3)C3[C@](C)(C(=O)[C@H](OC(C)=O)C(=C1C)C2(C)C)[C@@H](O)C[C@H]1OC[C@@]31OC(C)=O (some centres not stated) | inconclusive: 11.2 µM [activator, partial curve] |
| O=C(NCC1CCCO1)C(c1cccs1)N(Cc1cccs1)C(=O)c1ccc(-c2ccccc2)[nH]1 (configuration not stated) | inconclusive: 31.6 µM [activator, single point] |
| OCCC1CN(CCCc2ccccc2)CCN1Cc1ccccc1 (configuration not stated) | inactive |
| Fc1ccc(C2c3cccn3CCN2C(=S)Nc2cccc(F)c2)cc1 (configuration not stated) | active: 10 µM |
| Cc1ccc2nc3c(cc(C(=O)NCC4CCCO4)c(=N)n3CC3CCCO3)c(=O)n2c1 (configuration not stated) | inactive |
| Cc1cc2ncc(-c3cccs3)nc2cc1C | active: 10 µM |
| O=S(=O)(Nc1cccc(CCc2ccccn2)c1)c1ccc(Cl)cc1 | inconclusive: 35.5 µM [activator, single point] |
| C=CCc1ccc(OCCOc2ccc(/C=N/n3cnnc3)cc2OCC)c(OC)c1 | active: 15.8 µM |

As a working copy, some entries already given:

| SMILES | Potency |
| --- | --- |
| OCCC1CN(CCCc2ccccc2)CCN1Cc1ccccc1 (configuration not stated) | inactive |
| Fc1ccc(C2c3cccn3CCN2C(=S)Nc2cccc(F)c2)cc1 (configuration not stated) | active: 10 µM |
| Cc1ccc2nc3c(cc(C(=O)NCC4CCCO4)c(=N)n3CC3CCCO3)c(=O)n2c1 (configuration not stated) | inactive |
| Cc1cc2ncc(-c3cccs3)nc2cc1C | active: 10 µM |

(list continues)

| SMILES | Potency |
| --- | --- |
| O=C(Cc1ccccc1Cl)NNC(=O)Nc1ccccc1 | inactive |
| COc1ccc(OC)c(C(=O)CSc2nnc(-c3cccs3)o2)c1 | active: 7.08 µM |
| CCN(CC)S(=O)(=O)c1ccc(NCC2COc3ccccc3O2)c([N+](=O)[O-])c1 (configuration not stated) | inconclusive: 11.2 µM [activator, partial curve] |
| COc1ccc(S(=O)(=O)N2CCN=C2SCc2cccc(C)c2)cc1 | inconclusive: 4.47 µM [activator, partial curve] |
| COC(=O)/C(C#N)=C/c1c(N2CCN(c3ccccc3)CC2)nc2c(C)cccn2c1=O | inactive |
| O=Cc1[nH]c2ccccc2c1N(C(=O)CCl)c1ccc([N+](=O)[O-])cc1 | inactive |
| COc1ccc(NS(=O)(=O)c2ccc3ccccc3c2)c2ncccc12 | active: 0.708 µM |
| COc1ccccc1N(C)S(=O)(=O)c1ccc(Cl)c(C(=O)NNC(=O)c2ccccc2O)c1 | inactive |
| Nc1ccccc1SCc1cn2ccccc2n1 | inconclusive: 12.6 µM [inhibitor, partial curve] |
| O=C(c1ccc2c(c1)OCO2)N1CCC2(CC1)Oc1ccc(Cl)cc1C(=O)C21CC(c2cccnc2)=NO1 (configuration not stated) | inconclusive: 11.2 µM [activator, partial curve, poor fit] |
| Cc1nn(C(C)C(=O)NNC(=S)Nc2ccc(Cl)cc2)c(C)c1[N+](=O)[O-] (configuration not stated) | inconclusive: 17.8 µM [inhibitor, partial curve, poor fit] |
| CC(NC(=O)Cc1cc(F)cc(F)c1)C(=O)NC(C(=O)OC(C)(C)C)c1ccccc1 (configuration not stated) | inconclusive: 17.8 µM [activator, single point] |
| CCCCC(=O)OCc1nc2ccccc2s1 | inconclusive: 1.26 µM [activator, full curve, poor fit] |
| CC1(C)CC(=O)C(C=NCCN2CCOCC2)=C(O)C1 | inactive |
| CCCCc1nnc(NC(=O)C2=COCCO2)s1 | inconclusive: 35.5 µM [inhibitor, single point] |
| C=CCn1cc(C(=O)NCc2ccco2)c(=O)c2cc(S(=O)(=O)N3CCCCCC3)ccc21 | inconclusive: 35.5 µM [activator, single point] |
| CC12CCC3C(CCC4CC(O)CCC43C)C1CC=C2c1ccccc1 (configuration not stated) | inactive |
| Cc1nc2ccccc2c(=O)n1/N=C/c1ccc(C(C)C)cc1 | inconclusive: 7.08 µM [activator, partial curve, poor fit] |
| CCOc1ncccc1C(=O)NNC(=O)c1ccccc1-n1cccc1 | inconclusive: 35.5 µM [inhibitor, single point] |
| S=c1[nH]nc(-c2ccncc2)n1/N=C/c1ccccc1 | inconclusive: 22.4 µM [inhibitor, single point] |
| COc1ccc(NCc2nc3ccccc3n2CCOc2ccc(C)cc2)cc1 | active: 20 µM |
| COc1ccc(C(=O)/C=C/C(=O)N(Cc2ccc3c(c2)OCO3)C(C(=O)NC2CCCCC2)c2ccncc2)c(O)c1 (configuration not stated) | inconclusive: 17.8 µM [activator, single point] |
| O=C(Nc1ccccn1)c1ccc(Br)c(S(=O)(=O)N2CCCCC2)c1 | inactive |
